In the supplement of paper PMC10849652:
The list shows a part of the results.

Chains of the proteins cited; added tags and fusions are not shown. Lines headed by an entry give the natural chain unless they say otherwise; changes in a name come on top.
UniProt Q9Y3C1: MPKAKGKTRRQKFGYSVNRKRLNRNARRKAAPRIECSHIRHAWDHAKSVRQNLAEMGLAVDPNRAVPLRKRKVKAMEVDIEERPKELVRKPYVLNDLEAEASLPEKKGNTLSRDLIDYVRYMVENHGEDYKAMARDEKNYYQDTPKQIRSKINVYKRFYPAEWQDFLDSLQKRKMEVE
UniProt P22392, whole entry, looked up: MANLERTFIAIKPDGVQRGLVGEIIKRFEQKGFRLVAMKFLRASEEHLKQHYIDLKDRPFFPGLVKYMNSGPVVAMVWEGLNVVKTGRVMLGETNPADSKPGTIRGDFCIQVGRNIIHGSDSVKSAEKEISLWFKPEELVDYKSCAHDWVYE
UniProt Q15233: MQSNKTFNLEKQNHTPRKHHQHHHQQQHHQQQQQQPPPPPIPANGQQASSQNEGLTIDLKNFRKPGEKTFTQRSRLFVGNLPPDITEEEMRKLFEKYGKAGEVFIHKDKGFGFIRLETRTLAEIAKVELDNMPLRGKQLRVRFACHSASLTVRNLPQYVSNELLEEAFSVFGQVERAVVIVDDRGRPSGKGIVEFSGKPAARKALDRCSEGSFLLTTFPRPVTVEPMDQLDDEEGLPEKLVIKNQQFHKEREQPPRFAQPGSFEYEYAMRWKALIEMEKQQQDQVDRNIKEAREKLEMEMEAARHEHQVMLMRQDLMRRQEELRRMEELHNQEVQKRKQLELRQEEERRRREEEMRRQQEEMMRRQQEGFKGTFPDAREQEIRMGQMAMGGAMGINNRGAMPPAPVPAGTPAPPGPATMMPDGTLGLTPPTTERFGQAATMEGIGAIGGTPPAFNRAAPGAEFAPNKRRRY
UniProt Q7Z417: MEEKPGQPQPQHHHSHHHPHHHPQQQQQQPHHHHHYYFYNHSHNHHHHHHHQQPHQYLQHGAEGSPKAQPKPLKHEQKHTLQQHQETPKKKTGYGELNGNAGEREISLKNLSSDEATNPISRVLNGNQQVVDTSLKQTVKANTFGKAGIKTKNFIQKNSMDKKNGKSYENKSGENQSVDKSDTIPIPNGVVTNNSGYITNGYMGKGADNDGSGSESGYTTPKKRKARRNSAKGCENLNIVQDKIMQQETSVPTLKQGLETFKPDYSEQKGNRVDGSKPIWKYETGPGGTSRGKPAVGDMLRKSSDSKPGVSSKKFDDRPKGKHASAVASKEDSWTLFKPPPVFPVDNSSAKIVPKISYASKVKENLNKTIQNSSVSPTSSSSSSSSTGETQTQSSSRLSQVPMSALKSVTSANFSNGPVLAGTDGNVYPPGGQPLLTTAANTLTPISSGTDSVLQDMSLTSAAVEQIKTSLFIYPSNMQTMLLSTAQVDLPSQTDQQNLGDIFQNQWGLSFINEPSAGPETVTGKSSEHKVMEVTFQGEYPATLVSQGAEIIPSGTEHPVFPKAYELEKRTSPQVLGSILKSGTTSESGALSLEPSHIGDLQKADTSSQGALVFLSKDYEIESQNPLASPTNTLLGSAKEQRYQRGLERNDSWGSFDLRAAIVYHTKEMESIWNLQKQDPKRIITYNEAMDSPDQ
UniProt Q9Y6R0: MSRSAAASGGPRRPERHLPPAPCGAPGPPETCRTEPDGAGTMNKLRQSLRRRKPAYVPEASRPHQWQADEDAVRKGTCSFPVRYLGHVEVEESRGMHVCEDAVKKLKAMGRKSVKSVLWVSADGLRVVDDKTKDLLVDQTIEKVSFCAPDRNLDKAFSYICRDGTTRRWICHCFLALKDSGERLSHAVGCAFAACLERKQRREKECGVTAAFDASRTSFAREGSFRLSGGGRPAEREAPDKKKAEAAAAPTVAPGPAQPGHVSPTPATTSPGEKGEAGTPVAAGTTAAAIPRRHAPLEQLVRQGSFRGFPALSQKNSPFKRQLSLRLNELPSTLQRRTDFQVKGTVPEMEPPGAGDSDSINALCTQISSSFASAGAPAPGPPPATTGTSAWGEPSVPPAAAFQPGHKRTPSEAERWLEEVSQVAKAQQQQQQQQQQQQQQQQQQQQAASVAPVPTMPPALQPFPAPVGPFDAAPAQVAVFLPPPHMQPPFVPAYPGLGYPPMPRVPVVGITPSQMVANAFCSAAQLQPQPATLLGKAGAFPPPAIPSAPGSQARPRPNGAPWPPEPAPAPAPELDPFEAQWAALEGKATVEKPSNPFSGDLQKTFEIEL
UniProt Q9UMY1: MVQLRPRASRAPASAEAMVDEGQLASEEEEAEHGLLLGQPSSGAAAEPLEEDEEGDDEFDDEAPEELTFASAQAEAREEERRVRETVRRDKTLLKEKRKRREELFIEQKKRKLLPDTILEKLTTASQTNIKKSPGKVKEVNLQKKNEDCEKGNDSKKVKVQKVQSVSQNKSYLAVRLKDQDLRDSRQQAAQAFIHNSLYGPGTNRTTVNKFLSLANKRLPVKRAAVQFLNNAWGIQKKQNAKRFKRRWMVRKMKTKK
UniProt P04150: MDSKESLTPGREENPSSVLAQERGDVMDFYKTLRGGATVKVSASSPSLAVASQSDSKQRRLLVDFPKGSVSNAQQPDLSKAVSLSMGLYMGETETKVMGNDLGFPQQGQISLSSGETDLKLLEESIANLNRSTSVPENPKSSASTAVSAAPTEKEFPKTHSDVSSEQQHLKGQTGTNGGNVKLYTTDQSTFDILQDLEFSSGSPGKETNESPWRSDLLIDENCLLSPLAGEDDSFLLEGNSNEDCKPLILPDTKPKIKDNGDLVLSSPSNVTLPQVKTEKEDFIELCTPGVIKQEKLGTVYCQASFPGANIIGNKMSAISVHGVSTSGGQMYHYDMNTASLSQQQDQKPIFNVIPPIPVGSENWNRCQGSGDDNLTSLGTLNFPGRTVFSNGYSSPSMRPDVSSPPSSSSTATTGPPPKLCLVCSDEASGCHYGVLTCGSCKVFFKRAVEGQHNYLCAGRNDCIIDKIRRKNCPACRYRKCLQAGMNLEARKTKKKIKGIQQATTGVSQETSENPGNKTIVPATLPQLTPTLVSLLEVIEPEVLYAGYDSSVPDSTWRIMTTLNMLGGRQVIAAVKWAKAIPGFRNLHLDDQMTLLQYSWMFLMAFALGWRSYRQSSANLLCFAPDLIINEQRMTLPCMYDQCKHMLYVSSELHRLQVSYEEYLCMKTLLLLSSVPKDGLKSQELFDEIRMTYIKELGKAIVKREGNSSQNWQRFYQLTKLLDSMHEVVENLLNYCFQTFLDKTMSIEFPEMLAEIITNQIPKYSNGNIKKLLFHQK
UniProt Q9UNZ2: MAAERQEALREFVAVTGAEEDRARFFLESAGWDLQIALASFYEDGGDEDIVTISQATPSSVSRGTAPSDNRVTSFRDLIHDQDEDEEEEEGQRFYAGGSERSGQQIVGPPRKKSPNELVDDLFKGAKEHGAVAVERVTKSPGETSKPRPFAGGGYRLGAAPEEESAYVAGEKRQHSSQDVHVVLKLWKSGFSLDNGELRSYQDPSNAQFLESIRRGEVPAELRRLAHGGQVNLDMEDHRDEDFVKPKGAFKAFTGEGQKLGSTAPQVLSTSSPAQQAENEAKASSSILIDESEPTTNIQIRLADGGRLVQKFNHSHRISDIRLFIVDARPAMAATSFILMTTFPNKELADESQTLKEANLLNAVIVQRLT
UniProt A8MXV4: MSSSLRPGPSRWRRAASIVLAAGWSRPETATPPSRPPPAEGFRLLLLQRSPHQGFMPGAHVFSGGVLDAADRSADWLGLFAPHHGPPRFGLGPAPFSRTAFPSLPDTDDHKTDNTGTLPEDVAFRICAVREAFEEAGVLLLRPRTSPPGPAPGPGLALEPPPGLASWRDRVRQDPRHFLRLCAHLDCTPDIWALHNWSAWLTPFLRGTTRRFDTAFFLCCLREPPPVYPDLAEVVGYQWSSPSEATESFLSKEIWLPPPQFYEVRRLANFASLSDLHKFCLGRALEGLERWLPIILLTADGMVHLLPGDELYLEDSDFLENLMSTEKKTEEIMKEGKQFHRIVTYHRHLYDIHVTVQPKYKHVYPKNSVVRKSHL

Legend:
Assay in all cases: log2 fold change, soluble protein after heating vs DMSO (PISA); higher = thermal stabilisation; K562 lysate, 10 uM; active = over 0.2 and 3.5 SD of the protein, either way, in both replicates (recomputed)
[1] = compound: C1=CC=C(C=C1)[C@H](COC2=CC3=C(C=C2)NC(=O)N3)NC(=O)C4=CC=CN(C4=O)CC5=CC(=C(C=C5)F)F
Procedure, shortened: (§1)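 Dounce homogenisation of K562 pellets in PBS pH 7.4 with 1 mM MgCl2 produced a crude extract, used at 1 mg/mL protein. Exposure to 10 μM compound lasted 30 min, and aliquots were then heated for 3 min across 48°C-58°C, pooled and brought to 0.5% NP-40 at 4°C. The supernatant after 21,000xg for 90 min was quantified by TMTpro 16plex LC-MS/MS with channel sums equalised. Duplicate values are given as log-two fold change in thermal stability relative to solvent controls.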

[2] = compound: CC1=C(SC2=C1C(=N[C@H](C3=NN=C(N32)C)CC(=O)N)C4=CC=C(C=C4)Cl)C
Procedure, shortened: as §1

[3] = compound: CC1=C2C(=CC=C1)N=C(N(C2=O)C3=CC=CC=C3C)CN4C=NC5=C(N=CN=C54)N
Procedure, shortened: as §1

[4] = compound: Cc1sc2c(c1C)C(c1ccc(Cl)cc1)=N[C@@H](CC(=O)OC(C)(C)C)c1nnc(C)n1-2
Procedure, shortened: as §1

[5] = compound: c1ccc([C@@H]2C[C@H]2NC2CCNCC2)cc1
Procedure, shortened: as §1

Measured: log2 fold change

NOP16 (UniProt Q9Y3C1)
inactive: [1] 0.009 | [2] -0.035 | [3] 0 | [4] -0.039 | [5] 0.013

NME2 isoform 2 (UniProt P22392)
inactive: [1] 0.001 | [2] 0.016 | [3] -0.026 | [4] -0.01 | [5] -0.025

NONO (UniProt Q15233)
inactive: [1] -0.047 | [2] 0.02 | [3] 0.015 | [4] 0.026 | [5] 0.074

NUFIP2 (UniProt Q7Z417)
inactive: [1] 0.002 | [2] -0.006 | [3] 0.002 | [4] -0.004 | [5] -0.014

2 consecutive records from above, quoted:
NOP16 (UniProt Q9Y3C1)
inactive: [1] 0.009 | [2] -0.035 | [3] 0 | [4] -0.039 | [5] 0.013

NME2 isoform 2 (UniProt P22392)
inactive: [1] 0.001 | [2] 0.016 | [3] -0.026 | [4] -0.01 | [5] -0.025

The list continues.

NUMBL (UniProt Q9Y6R0)
inactive: [1] -0.047 | [2] 0.038 | [3] 0.039 | [4] -0.096 | [5] -0.012

NOL7 (UniProt Q9UMY1)
inactive: [1] 0.056 | [2] -0.089 | [3] -0.052 | [4] 0.12 | [5] 0.05

NR3C1 isoform 3 (UniProt P04150)
active: [1] 0.292
inactive: [2] 0.034 | [3] -0.001 | [4] -0.035 | [5] 0.084

NSFL1C isoform 5 (UniProt Q9UNZ2)
inactive: [1] 0.024 | [2] -0.027 | [3] -0.012 | [4] 0.02 | [5] 0.016

NUDT19 (UniProt A8MXV4)
inactive: [1] -0.003 | [2] 0.014 | [3] 0.006 | [4] 0.001 | [5] 0.022
